Test results published in publication PMC6748129.
These are yes or no findings as the source states them, for the method shown. Binding seen in cells or lysates may run through a third protein. Some entries that bind do so weakly or less than the wild type. For some of these results: Tags and fused reporters may be left off the sequences shown. One block for each molecule: values may come before it.

Sequences of proteins named here, by UniProt entry; tags and fusion partners are left off.
UniProt Q9UBN7: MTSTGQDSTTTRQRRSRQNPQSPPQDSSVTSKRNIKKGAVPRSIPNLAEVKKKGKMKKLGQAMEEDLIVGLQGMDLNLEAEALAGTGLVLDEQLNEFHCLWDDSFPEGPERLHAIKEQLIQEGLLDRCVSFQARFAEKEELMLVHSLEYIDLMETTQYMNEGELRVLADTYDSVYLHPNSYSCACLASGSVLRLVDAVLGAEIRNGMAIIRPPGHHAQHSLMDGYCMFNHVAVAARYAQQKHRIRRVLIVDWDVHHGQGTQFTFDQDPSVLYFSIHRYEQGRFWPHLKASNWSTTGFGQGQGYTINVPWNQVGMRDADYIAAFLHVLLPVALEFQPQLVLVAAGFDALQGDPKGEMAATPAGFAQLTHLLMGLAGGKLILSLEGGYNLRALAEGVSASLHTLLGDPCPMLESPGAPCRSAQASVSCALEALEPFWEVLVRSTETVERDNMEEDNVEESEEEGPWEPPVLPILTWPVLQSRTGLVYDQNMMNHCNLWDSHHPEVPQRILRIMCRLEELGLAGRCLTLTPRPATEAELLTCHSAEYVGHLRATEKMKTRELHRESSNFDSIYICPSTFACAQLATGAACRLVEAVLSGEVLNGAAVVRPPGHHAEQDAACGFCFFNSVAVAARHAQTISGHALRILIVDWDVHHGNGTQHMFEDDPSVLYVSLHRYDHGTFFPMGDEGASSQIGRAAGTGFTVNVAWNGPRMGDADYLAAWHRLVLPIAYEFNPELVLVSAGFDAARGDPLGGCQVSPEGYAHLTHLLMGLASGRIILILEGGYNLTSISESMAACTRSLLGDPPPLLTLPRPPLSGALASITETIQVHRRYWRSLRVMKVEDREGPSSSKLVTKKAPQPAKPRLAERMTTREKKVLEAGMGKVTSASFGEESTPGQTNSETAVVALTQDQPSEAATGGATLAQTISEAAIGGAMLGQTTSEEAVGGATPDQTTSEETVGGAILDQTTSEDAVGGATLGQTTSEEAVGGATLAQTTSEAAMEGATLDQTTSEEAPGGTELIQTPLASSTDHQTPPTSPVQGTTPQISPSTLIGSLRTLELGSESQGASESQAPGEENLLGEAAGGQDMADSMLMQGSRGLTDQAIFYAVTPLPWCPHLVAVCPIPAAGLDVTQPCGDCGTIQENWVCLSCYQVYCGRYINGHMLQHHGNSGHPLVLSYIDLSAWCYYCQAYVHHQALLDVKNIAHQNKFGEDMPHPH

What was measured:
HA-RASSF1A (human) [1] = target: T1, HA-RASSF1A (human) (UniProt Q9NS23); assay: co-IP; lysates of 293T cells transiently expressing both tagged partners; immunoblot
T1 sequence: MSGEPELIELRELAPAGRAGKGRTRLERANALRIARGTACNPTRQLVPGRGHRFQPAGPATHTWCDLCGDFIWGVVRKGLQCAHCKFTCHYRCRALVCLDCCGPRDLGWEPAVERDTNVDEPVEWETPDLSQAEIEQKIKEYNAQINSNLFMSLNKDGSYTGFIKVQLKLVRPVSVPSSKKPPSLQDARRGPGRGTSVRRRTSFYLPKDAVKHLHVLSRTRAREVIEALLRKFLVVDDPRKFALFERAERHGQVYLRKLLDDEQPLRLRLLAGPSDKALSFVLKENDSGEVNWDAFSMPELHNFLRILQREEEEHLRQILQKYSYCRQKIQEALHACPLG

[2] = target: T2, endogenous RASSF1A (HeLa) (human (endogenous in HeLa)) (UniProt Q9NS23); assay: co-IP; HeLa cells transiently overexpressing Flag-HDAC6; endogenous RASSF1A precipitated; immunoblot
T2 sequence: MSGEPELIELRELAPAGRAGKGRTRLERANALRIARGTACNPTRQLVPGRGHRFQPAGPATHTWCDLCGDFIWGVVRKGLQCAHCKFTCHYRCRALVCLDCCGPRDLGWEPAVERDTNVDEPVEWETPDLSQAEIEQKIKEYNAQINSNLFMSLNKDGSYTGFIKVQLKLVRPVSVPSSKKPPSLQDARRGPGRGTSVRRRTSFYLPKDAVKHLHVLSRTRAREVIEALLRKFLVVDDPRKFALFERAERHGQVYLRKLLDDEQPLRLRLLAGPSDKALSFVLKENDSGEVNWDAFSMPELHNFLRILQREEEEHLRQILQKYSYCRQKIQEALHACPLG

[3] = target: HDAC6 (HeLa lysate, Fig. 6n) (UniProt Q9UBN7); assay: co-IP; lysates of HeLa cells transiently expressing GFP fused RASSF1A constructs; HDAC6 precipitated; immunoblot
Flag-HDAC6 (in 293T) = Flag-HDAC6 (in 293T) (UniProt Q9UBN7); assay: co-IP; lysates of 293T cells transiently expressing both tagged partners; immunoblot
[4] = target: T3, HA-MAP1S full length (human) (UniProt Q66K74); assay: as above
T3 sequence: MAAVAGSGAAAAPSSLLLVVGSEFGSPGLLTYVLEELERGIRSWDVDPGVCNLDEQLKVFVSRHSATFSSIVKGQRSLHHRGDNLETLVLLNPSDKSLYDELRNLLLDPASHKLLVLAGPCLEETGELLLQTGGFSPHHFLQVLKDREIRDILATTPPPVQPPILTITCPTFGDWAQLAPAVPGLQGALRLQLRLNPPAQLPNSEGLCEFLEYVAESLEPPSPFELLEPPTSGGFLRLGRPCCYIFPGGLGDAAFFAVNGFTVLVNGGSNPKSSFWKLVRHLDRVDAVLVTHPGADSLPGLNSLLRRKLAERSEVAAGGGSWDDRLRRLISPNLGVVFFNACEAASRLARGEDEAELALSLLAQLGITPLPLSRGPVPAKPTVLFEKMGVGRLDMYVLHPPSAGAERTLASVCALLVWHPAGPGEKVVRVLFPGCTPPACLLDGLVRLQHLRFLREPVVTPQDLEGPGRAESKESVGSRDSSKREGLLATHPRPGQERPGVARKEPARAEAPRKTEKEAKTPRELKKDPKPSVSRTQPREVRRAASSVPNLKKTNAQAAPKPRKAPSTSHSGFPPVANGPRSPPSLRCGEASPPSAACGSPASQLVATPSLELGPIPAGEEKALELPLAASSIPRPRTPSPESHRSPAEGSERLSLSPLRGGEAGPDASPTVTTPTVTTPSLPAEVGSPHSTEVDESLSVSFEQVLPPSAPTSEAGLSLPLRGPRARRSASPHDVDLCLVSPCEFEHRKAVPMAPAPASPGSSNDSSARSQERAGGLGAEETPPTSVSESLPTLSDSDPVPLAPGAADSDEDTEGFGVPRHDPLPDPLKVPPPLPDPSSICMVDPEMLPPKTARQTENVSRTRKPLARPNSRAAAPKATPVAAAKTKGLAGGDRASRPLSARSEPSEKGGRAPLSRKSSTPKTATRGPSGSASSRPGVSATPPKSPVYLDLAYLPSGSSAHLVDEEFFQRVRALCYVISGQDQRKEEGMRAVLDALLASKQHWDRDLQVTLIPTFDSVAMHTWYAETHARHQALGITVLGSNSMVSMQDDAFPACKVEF

[5] = target: T3, HA-MAP1S full length (human); assay: co-IP; Fig. 7c-g; cells and tags not told in the legend; immunoblot
[6] = target: T4, HA-HBD (R653-Q855 fragment of MAP1S) (human) (UniProt Q66K74); assay: co-IP; lysates of 293T cells transiently expressing both tagged partners; immunoblot
T4 sequence: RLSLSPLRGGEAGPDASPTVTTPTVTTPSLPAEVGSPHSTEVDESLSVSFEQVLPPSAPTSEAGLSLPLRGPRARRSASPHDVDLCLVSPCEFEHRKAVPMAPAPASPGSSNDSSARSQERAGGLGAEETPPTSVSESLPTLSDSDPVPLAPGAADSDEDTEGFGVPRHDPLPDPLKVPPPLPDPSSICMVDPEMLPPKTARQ

HA-RASSF1A (human) [7] = target: T1, HA-RASSF1A (human); assay: co-IP; Fig. 7c-g; cells and tags not told in the legend; immunoblot
[8] = target: T5, endogenous MAP1S (293T) (human (endogenous in 293T)) (UniProt Q66K74); assay: co-IP; lysates of 293T cells transiently expressing GFP-fused RASSF1A fragments; the other partner endogenous; immunoblot
T5 sequence: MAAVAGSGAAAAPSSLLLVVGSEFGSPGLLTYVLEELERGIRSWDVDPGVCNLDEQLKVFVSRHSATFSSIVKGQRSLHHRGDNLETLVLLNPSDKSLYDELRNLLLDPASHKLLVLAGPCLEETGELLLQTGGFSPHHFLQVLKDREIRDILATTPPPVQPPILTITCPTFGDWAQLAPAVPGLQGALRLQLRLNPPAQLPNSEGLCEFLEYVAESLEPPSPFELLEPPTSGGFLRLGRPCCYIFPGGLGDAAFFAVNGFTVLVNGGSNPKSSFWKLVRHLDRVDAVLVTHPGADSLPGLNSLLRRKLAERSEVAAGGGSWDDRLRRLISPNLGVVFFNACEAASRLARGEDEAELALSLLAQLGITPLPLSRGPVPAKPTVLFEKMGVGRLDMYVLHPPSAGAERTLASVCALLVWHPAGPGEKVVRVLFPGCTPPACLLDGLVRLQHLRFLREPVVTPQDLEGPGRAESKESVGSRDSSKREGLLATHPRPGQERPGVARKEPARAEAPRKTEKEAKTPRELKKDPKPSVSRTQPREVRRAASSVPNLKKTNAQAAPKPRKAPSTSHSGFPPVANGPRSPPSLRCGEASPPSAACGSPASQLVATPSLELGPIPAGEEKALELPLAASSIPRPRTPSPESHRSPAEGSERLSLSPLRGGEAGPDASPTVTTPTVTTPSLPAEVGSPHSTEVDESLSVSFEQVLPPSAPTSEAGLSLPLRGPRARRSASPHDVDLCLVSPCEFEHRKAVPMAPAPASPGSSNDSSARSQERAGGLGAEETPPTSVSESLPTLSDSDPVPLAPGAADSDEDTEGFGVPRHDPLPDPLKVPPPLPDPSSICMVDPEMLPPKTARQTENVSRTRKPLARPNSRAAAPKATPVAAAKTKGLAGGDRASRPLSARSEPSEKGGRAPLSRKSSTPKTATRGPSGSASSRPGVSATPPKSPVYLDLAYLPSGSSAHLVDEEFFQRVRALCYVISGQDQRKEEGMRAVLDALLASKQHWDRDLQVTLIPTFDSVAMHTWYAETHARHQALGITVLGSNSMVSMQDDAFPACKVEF

[9] = target: T6, endogenous MST1 (293T) (human (endogenous in 293T)) (UniProt Q13043); assay: as above
T6 sequence: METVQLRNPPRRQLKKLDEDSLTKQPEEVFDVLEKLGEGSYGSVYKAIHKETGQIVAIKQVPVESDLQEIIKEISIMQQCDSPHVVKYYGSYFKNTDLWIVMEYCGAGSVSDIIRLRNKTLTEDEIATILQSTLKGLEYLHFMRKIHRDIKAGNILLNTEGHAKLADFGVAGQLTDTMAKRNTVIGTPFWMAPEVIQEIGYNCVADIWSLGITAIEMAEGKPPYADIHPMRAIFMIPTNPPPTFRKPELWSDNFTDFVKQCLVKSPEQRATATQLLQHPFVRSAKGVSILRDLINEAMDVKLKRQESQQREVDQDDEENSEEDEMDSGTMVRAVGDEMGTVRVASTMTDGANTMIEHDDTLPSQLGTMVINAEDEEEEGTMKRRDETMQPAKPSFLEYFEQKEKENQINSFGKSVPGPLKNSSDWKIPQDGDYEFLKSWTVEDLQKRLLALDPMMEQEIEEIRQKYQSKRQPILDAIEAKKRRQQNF

binding (HA-RASSF1A (human) [1]): binds
Molecule: Flag-HDAC6 (in 293T) (from UniProt Q9UBN7 1-1215) (enzyme)

binding [2]: binds
Molecule: Flag-HDAC6 (in HeLa) (from UniProt Q9UBN7 1-1215) (enzyme)

binding [3]: binds
Molecule: MSLNKDGSYTGFIKVQLKLVRPVSVPSSKKPPSLQ (domain or fragment, UniProt Q9NS23-2 152-186) [GFP-fused RASSF1A fragment F2 (amino acids 152-186)]

binding (Flag-HDAC6 (in 293T)): binds
binding [4]: no binding
B1: HA-RASSF1A∆ (RASSF1A with the RA domain deleted) (protein, UniProt Q9NS23-2)
chain: MSGEPELIELRELAPAGRAGKGRTRLERANALRIARGTACNPTRQLVPGRGHRFQPAGPATHTWCDLCGDFIWGVVRKGLQCAHCKFTCHYRCRALVCLDCCGPRDLGWEPAVERDTNVDEPVEWETPDLSQAEIEQKIKEYNAQINSNLFMSLNKDGSYTGFIKVQLKLVRPVSVPSSKKPPSLQSGEVNWDAFSMPELHNFLRILQREEEEHLRQILQKYSYCRQKIQEALHACPLG

binding [5]: binds
binding [6]: binds
binding (Flag-HDAC6 (in 293T)): binds
binding [4]: binds
B2: HA-RASSF1A (protein, UniProt Q9NS23-2 1-340)
chain: MSGEPELIELRELAPAGRAGKGRTRLERANALRIARGTACNPTRQLVPGRGHRFQPAGPATHTWCDLCGDFIWGVVRKGLQCAHCKFTCHYRCRALVCLDCCGPRDLGWEPAVERDTNVDEPVEWETPDLSQAEIEQKIKEYNAQINSNLFMSLNKDGSYTGFIKVQLKLVRPVSVPSSKKPPSLQDARRGPGRGTSVRRRTSFYLPKDAVKHLHVLSRTRAREVIEALLRKFLVVDDPRKFALFERAERHGQVYLRKLLDDEQPLRLRLLAGPSDKALSFVLKENDSGEVNWDAFSMPELHNFLRILQREEEEHLRQILQKYSYCRQKIQEALHACPLG

binding [3]: binds
B3: GFP-fused RASSF1A fragment F1 (amino acids 1-151) (domain or fragment, UniProt Q9NS23-2 1-151)
chain: MSGEPELIELRELAPAGRAGKGRTRLERANALRIARGTACNPTRQLVPGRGHRFQPAGPATHTWCDLCGDFIWGVVRKGLQCAHCKFTCHYRCRALVCLDCCGPRDLGWEPAVERDTNVDEPVEWETPDLSQAEIEQKIKEYNAQINSNLF

binding (HA-RASSF1A (human) [7]): binds
B4: HA-HBD (R653-Q855 fragment of MAP1S) (domain or fragment, UniProt Q66K74 653-855)
chain: RLSLSPLRGGEAGPDASPTVTTPTVTTPSLPAEVGSPHSTEVDESLSVSFEQVLPPSAPTSEAGLSLPLRGPRARRSASPHDVDLCLVSPCEFEHRKAVPMAPAPASPGSSNDSSARSQERAGGLGAEETPPTSVSESLPTLSDSDPVPLAPGAADSDEDTEGFGVPRHDPLPDPLKVPPPLPDPSSICMVDPEMLPPKTARQ

binding [8]: binds
B5: GFP-fused RASSF1A fragment F3 (RA domain, amino acids 187-287) (domain or fragment, UniProt Q9NS23-2 187-287)
chain: DARRGPGRGTSVRRRTSFYLPKDAVKHLHVLSRTRAREVIEALLRKFLVVDDPRKFALFERAERHGQVYLRKLLDDEQPLRLRLLAGPSDKALSFVLKEND

binding [9]: binds
B6: GFP-fused RASSF1A fragment F4 (SARAH domain, amino acids 288-340) (domain or fragment, UniProt Q9NS23-2 288-340)
chain: SGEVNWDAFSMPELHNFLRILQREEEEHLRQILQKYSYCRQKIQEALHACPLG
